From PubChem BioAssay AID1347423 (Functional Genomics Laboratory (NCATS/FGL), 2020)
Screen size: about 52,000 sequences; about 210 (0.4%) were called active.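 Rule for the calls: active = gene whose silencing raises cell survival under the drug, median off-target-corrected z-score across its silencing RNAs 2 or more; inactive = the rest.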 The list shows a part of the results.

Assay: Resistance to Poly (ADP-Ribose) Polymerase inhibitor: Gene Identification via Genome-wide siRNA Screen
Settings: mouse BRCA2 R2336H ES cells, olaparib, CellTiter-Glo viability; hits give high values
Summary of the method: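 Mouse BRCA2 R2336H ES cells were reverse-transfected with siRNA (20 nM final), treated at 48 h with 500 nM olaparib, and read by CellTiter-Glo after 72 h. Scores: MAD-based z per siRNA, median per gene, seed off-target correction.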

Sequence	z-score
GGUGCAGAGUUACACGUGCTT against H2-T10	inactive: 1.26
GGAUUGUCAUUGACAAAACTT against Slc31a2	inactive: 1.88
CCAGUACUCGUUUCACUUATT against Mrpl15	inactive: -1.04
GCCAGCUUUUAGUAUCAACTT against Unc84a	inactive: 2.49
GGAGCUAGCAGAGAUAACCTT against Ube2e3	inactive: 0.0166
GCAGCAUGGAGUUCACUAUTT against Tapbp	inactive: 0.931
GGUGGUGCUUAAGUCCAUCTT against Cacna1b	inactive: 0.0603
GGAUCUUAAGUCCUAACAUTT against Tacc3	inactive: -1.9
CGGUAGCCGGUCUUGGUGGTT against Hist2h2aa1	inactive: -0.63
GGACACUAUCCCAUUUCUATT against 9030221C07Rik	inactive: -1.58
GGUGUUUGGGUACCAGUCUTT against Cyp8b1	inactive: 0.159
GGAACAACAUCCUAUGCUCTT against Ranbp17	inactive: -0.153
CGUGACUACACCAUCAAAGTT against Gpr56	inactive: 0.473
CCUGUGACGAAUUUGAGCGTT against Il13ra1	inactive: -0.263
GGAAGCAUCAUGGAAAGGCTT against 1810032O08Rik	inactive: -0.25
GUUGGUUUGUUGACCUCUUTT against LOC212285	inactive: 0.9
CCCUGCUCUCACUUGUUUATT against Olfr643	inactive: -0.317
GGUUUGACUGGCUACCUAUTT against Galntl2	inactive: -0.175
GGAAUAUGAAGACAUAGCUTT against Ogt	inactive: -2.33
GGACAACAGUGUAAAAAUCTT against 4930511I11Rik	inactive: -0.186
GGAUACACAAACCAAAAGUTT against 2310015N07Rik	inactive: 1.39
CCUUUGUUCCACAUAAUAATT against V1rc1	inactive: 0.712
GAUUGUUGCACGGCUGAAGTT against Cxcl12	inactive: 0.323

Sequence	z-score
GGGAGAGCAAAACUAUUUCTT against Padi6	inactive: 1.35
GGUGCUUUCCACGAUCAACTT against Tbl2	inactive: -0.769
CCGCUUUUGUCAAGUUUUCTT against Ddef1	inactive: -0.0436
GGCGAUACUUGGAAAAAUCTT against Nln	inactive: -1.11
GCCAACAAGCAUUCCAUUGTT against 1110025G12Rik	inactive: -0.611
GCUGUUGUUUGCUAGCAAATT against Lip1	inactive: 0.127
GGUUCCUGGGAACCUAAGUTT against 2610034E13Rik	inactive: -2.13
GCAAUCCAAAGUUUUAAUCTT against 7-Sep	inactive: -0.301
GGCAGUCAAUAGUGGCCUGTT against Bcor	inactive: -1.6
GGGAUGGCCAUAGAACAGATT against D4Ertd765e	inactive: 0.923
GGGACACAGCUAAAAGCUUTT against C530043G21Rik	inactive: -0.783
GGCCUCUCCACUUGUGAAGTT against Ghitm	inactive: -0.0475
CGGAUCAUUGCCAAUAUCATT against Adam33	inactive: -0.281
GGCAGUCUUAUAAUUCAUCTT against 6330416L07Rik	inactive: 0.521
GGCAUAAUUCGAGAUAUCATT against B130016O10Rik	inactive: 3.47
GGGUAAAAGGCUUUUUUGUTT against Siat8f	inactive: 1.12
GGUACAACUUUGUGACUUATT against Ckn1	inactive: 0.158
GGAACUGGUGAUAGGAGUCTT against Olfr513	inactive: 0.682
GGAGAAAAUCAACAAGAUCTT against Ppp2r2c	inactive: -0.0371
GCAACUUAAUACUAGGUGATT against 5730439E10Rik	inactive: 0.387
CCAUUAAUAUCUCAUGUGATT against Fshr	inactive: 0.741
GGCAGUCUUCUAGUAAGAATT against BC009118	inactive: 1.97
GGUAACUAUGAAGAGAUCATT against Neu2	inactive: 2.48

Reformatted in CSV form: entries from further up
Sequence,z-score
GCAAUCCAAAGUUUUAAUCTT against 7-Sep,inactive: -0.301
GGCAGUCAAUAGUGGCCUGTT against Bcor,inactive: -1.6
GGGAUGGCCAUAGAACAGATT against D4Ertd765e,inactive: 0.923

Remaining list, next part

Sequence	z-score
GGCAGAGAUUGAGAGCAAGTT against Palm	inactive: 1.2
GGUCCACCUUCUUACUUUATT against 2900064A13Rik	inactive: -1.18
GGUUCAUUGUGUCUCUGGCTT against Grk1	inactive: 0.169
CCACAAGUGCUUCAUGGGUTT against Rims3	inactive: -0.0813
GGGCAAAAGCUGUUACAAGTT against Ahrr	inactive: 0.359
GGUUGUGGAACAAAGAGAATT against Gucy1b3	inactive: 1.39
GGGCAGGUGGAUGUGGAAATT against Ryr2	inactive: -0.427
GGAAUCGUCUGAGAAAUUCTT against Lgmn	inactive: 0.618
CGUCAUAAAGAAUAGUUCCTT against Ncoa4	inactive: -0.259
GCGACUGAACAUCAACGCATT against Ada	inactive: 0.969
GGAUGAAAGCAAAGACAAGTT against Zipro1	inactive: 0.174
GGGAAUGCACUACAACUACTT against D1Bwg1363e	inactive: -0.273
GGACUCUGUCCUUUUCAAATT against 5031404N07	inactive: 0.407
UACCCUAGGUCGACUCUCATT against Faim3	inactive: -0.689
GGACGACAUGAUUUUCGAGTT against Atp1b1	inactive: -0.208
GGAAGAUGAUGUUUUAGGUTT against Pde7a	inactive: 2
GUCAACUUGCUGCCAAGACTT against Ifna2	inactive: -2.74
CCAAACAAUAGACAUGCUUTT against Npy1r	inactive: 1.24
GGAUGAAGACCUUGAACGGTT against Slc28a3	inactive: 2
GCAGUGAUUCAGUUAUAACTT against Gypc	inactive: 0.0824
GGAUUUUGUUUCAGGUGGATT against 4832412O06Rik	inactive: 0.127
